In article PMC6351106:

Biological target: Streptag-FLAG-tagged SEC23B(S186D) (human) (UniProt Q15437)
Test: co-IP; affinity purification of Streptag-tagged bait on Streptactin beads from transfected HEK293T extracts (50 mM Tris pH 7.4, 150 mM NaCl, 2 mM EDTA, 10% glycerol, 0.5% NP-40; 2 h at 4 C), immunoblotting; in some panels MLN4924 for 4 h, EBSS starvation or co-expressed ULK1

Substance	binding
GFP-SAR1 (H79G)	binds
GFP-SAR1 (T39N)	no binding

No constants are given. Whether binding was seen depends on the method and setting. In cells and extracts the contact can be indirect. Binding can be weak; no strength is given. Sequences can lack the tags named with a protein.
